What was measured:
[1] = test system: breast cancer cells (MCF-7); test: MTT cytotoxicity assay, MCF-7; settings: Homo sapiens, MCF7, 48 h, read-out: Cytotoxicity IC50 MCF-7
Procedure: (§1) All of the synthesized compounds were screened for their cytotoxic effect against three different human cancer cells, namely breast cancer cells (MCF-7), lung cancer cells (A549), and colorectal adenocarcinoma cells (Caco2), using the MTT cytotoxic assay. […] Then, 3-[4,5-dimethylthiazol-2-yl]-2,5-diphenyl tetrazolium bromide (MTT) was added.

[2] = test system: colorectal adenocarcinoma cells (Caco2); test: MTT cytotoxicity assay, Caco2; settings: Homo sapiens, Caco-2, 48 h, read-out: Cytotoxicity IC50 Caco2
Procedure: as §1

[3] = Cytotoxicity toward normal cells MCF-10a; type: cell-based, human; settings: human, Cytotoxicity IC50 MCF-10a
[4] = test system: mammary gland epithelial cell line MCF-10a; test: Cytotoxicity toward normal cells MCF-10a; type: cell-based, human

## CN[C@@H]1C[C@H]2O[C@@](C)([C@@H]1OC)n1c3ccccc3c3c4c(c5c6ccccc6n2c5c31)C(=O)NC4 [Staurosporine, reference compound]
[1]
  IC50: 8.03 ± 0.38 µM
[2]
  IC50: 11.3 ± 0.56 µM
[3]
  IC50: 34.8 µM
[4]; MCF-10a IC50 relative to MCF-7 IC50
  SI (selectivity index): 4.34
[4]; human
  IC50: 34.9 ± 1.73 µM
